We go through five compounds from the supplement of paper PMC4604168 (melanoma cell lines).

The other results are listed elsewhere or left out. Many values rest on one well or one pass, so single values are uncertain.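 The apoptosis fraction was the count of cleaved-PARP antibody-stained nuclei relative to all DNA-stained nuclei, imaged in 1,536-well plates. Screening doses were set so most cells survived, and baseline and induced cleaved-PARP levels vary greatly across cell lines.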

The experiment deals with A375. The experiment in a line: cleaved PARP positive nuclei fraction relative to DMSO control; melanoma cells; higher = more apoptosis. Conditions: library dose: low library concentration; 72 h.
For the compound `CO[C@H]1C[C@@H]2CC[C@@H](C)[C@@](O)(O2)C(=O)C(=O)N2CCCC[C@H]2C(=O)O[C@H]([C@H](C)C[C@@H]2CC[C@@H](OCCO)[C@H](OC)C2)CC(=O)[C@H](C)/C=C(\C)[C@@H](O)[C@@H](OC)C(=O)[C@H](C)C[C@H](C)/C=C/C=C/C=C/1C` [everolimus] + O=C(Nc1cccc(Cl)c1)Nc1ncc(CCNc2ncnc3ccsc23)s1 [SNS314] (first compound 0.02 µM, partner dose 0.0008 µM), the “cleaved PARP positive nuclei fraction” value turned out to be 338%.
In the case of `O=C(O)c1ccc2c(c1)nc(Nc1cccc(Cl)c1)c1ccncc12` + NC(=O)Nc1cc(-c2cccc(F)c2)sc1C(=O)N[C@H]1CCCNC1 [AZD7762] (first compound 0.4 µM, partner dose 0.02 µM), the “cleaved PARP positive nuclei fraction” value is 179%.
Under `Cn1c(=O)n(-c2ccc(C(C)(C)C#N)cc2)c2c3cc(-c4cnc5ccccc5c4)ccc3ncc21` + O=C(O)c1ccc(-c2c[nH]c3ncc(-c4ccccc4)cc23)cc1C1CCCC1 [GSK650394] (first compound 0.004 µM, partner dose 0.16 µM) stands 119%.
`O=C(O)c1ccc2c(c1)nc(Nc1cccc(Cl)c1)c1ccncc12` + O=C(O)c1ccc(-c2c[nH]c3ncc(-c4ccccc4)cc23)cc1C1CCCC1 [GSK650394] (first compound 0.4 µM, partner dose 0.16 µM): the “cleaved PARP positive nuclei fraction” value came to 133%.
Under `CC(C)C[C@H](NC(=O)[C@H](Cc1ccccc1)NC(=O)c1cnccn1)B(O)O` [Bortezomib] + O=C(CCCCCCC(=O)Nc1ccccc1)NO [vorinostat] (first compound 0.001 µM, partner dose 0.08 µM) stands 77.8%.
